Source: patent US5322931 (dated 1994)
Where no end group is shown, it is not given here. [ ]: non-standard residue; d: D form. The star is where a group is joined. Boc = CC(C)(C)OC(=O)*

Assay: general procedure: solution-phase peptide synthesis; dicyclohexylcarbodiimide / N-hydroxysuccinimide ester
Details: tetratrifluoroacetate salt

With Boc-K(Boc)H[dW]A-OH the step yield (late stage modification step) was 55%.

In the case of Boc-K(Boc)H[dW]A-OMe, the step yield (coupling step) is reported as 104%.

In the case of KH[dW]AW[dF]K-NH2, the “final HPLC purity” value (late stage modification step, 280 nm) is reported as “greater than 95%”, the “final HPLC purity” value (late stage modification step, HPLC (total integrated intensity at 280 nm)) is reported as “approximately 90%” and the step yield (late stage modification step, after lyophilization) is reported as 51%. The “final purity (method not given)” value (late stage modification step, proton NMR, organic components) was “greater than 80%”.
